This note sets out measurements from paper PMC7819943, “Rice protein-binding microarrays: a tool to detect cis-acting elements near promoter regions in rice”.

Protein sequences, listed by entry. Tags and fused reporters are not part of them.
UniProt Q0JBA9, entry or part of it: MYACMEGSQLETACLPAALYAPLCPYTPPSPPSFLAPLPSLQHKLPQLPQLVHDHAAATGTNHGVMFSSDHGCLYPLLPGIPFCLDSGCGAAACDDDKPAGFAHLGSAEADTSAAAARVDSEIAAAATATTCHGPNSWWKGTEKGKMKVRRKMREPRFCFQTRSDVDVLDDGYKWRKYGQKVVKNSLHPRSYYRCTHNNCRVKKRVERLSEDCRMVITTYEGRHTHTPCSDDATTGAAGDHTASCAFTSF

Some of the results follow.

The target of the assay is OsWRKY34 (Oryza sativa, UniProt Q0JBA9 1-250). In words: protein-binding microarray (RPBM); PBS, 2% BSA, 51.3 ng/ul salmon testes DNA, 50 uM zinc acetate, 200 nM TF, 25 C, 1 h; high values mean tight binding. Conditions: protein: recombinant; tags: N-terminal polyhistidine and DsRed monomer fusion (pET32a); label: CyDye5-dUTP incorporated in the synthesized complementary strand; 3' TTTTT single-stranded linker to array surface; dsDNA, one strand shown. Put shortly:
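Transcription factors were made in E. coli BL21-CodonPlus as N-terminal fusions to a polyhistidine tag and DsRed, then purified on Ni–NTA. After primer extension with Cy5-dUTP and blocking with 2% BSA, a custom Agilent array was exposed for 1 h at 25 °C to 200 nM protein in PBS, 2% BSA, salmon testes DNA and 50 µM zinc acetate. Washed arrays were scanned on an Axon 4000B, and the binding signal is per-feature fluorescence intensity in arbitrary units.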
Consider “GAGGAAACATCTATCCCGGTCAAAGCCTGAGCATGTACACCGGAGTCACCTAGTGCAG”, for which the binding signal was 8210 fluorescence intensity (a.u.). Next, “TCCGCCGCGTTTCGCACCACCACCACCGCCGCCGACCATGCGGAGTCACCTAGTGCAG”: 10000 fluorescence intensity (a.u.). The value for “GTCCGGAACGTTATAACGATTCACGTTTGGCCCATTTTATCGGAGTCACCTAGTGCAG” was 10500 fluorescence intensity (a.u.); that for “GCCGCCGACGCCCTCCTCCTCTCCCACTTCGCACTGCCGGCGGAGTCACCTAGTGCAG” was 8350 fluorescence intensity (a.u.); that for “CCCTATAATTCACAACACATCTTAGACTGTGTTCTTTTCCCGGAGTCACCTAGTGCAG” was 9220 fluorescence intensity (a.u.). Next, “CCACTTCCGACCTAAACCCTTCATATCCCACCACCGGAAACGGAGTCACCTAGTGCAG”: 9090 fluorescence intensity (a.u.). Turning to “GCCAATCCCTCCATGCCTTCTCGGGCTCATGGTGGAGGGGCGGAGTCACCTAGTGCAG”, the binding signal was 11000 fluorescence intensity (a.u.).

As to “GTCTCATCGTCTGTCTCGCTCGGCGCTCGTCTTTCTCCCCCGGAGTCACCTAGTGCAG”, the binding signal is 9580 fluorescence intensity (a.u.).

Regarding “TTTGTCGACCTACTGCTATTGGTACTTCTGCTGGCTGAACCGGAGTCACCTAGTGCAG”, the binding signal is 8860 fluorescence intensity (a.u.). In the case of “GAACCCTTCGCCGTCGCCGGCGATCCCACCGACTCCCGGCCGGAGTCACCTAGTGCAG”, the binding signal is 8520 fluorescence intensity (a.u.). Regarding “AGCCACTGATACCCACACCTATGGATTGCTGCCCCACTTTCGGAGTCACCTAGTGCAG”, the binding signal was 12000 fluorescence intensity (a.u.). For the sequence “TATTTGCTGTTTTCGGTGATTCGGTCGTTTCGGCCGGATCCGGAGTCACCTAGTGCAG”, the binding signal is 9390 fluorescence intensity (a.u.). As to “GACTATAGAGGCTTTGTTTGTTTGGGGTGTGTTTTTGTCTCGGAGTCACCTAGTGCAG”, the binding signal was 17200 fluorescence intensity (a.u.). For the sequence “TTTTACCCTTGGTGGTTTTAATTCGTTCATTTTTTCTATGCGGAGTCACCTAGTGCAG”, the binding signal was 8560 fluorescence intensity (a.u.). Next, “TCTAATAGTAGTTGACTAAATCTCGGCAAGACCCACCACACGGAGTCACCTAGTGCAG”: 9550 fluorescence intensity (a.u.). Next, “ACTGTATTTGGGCTGTGGGCCGTAGGCTGTCTCTTCTCAACGGAGTCACCTAGTGCAG”: 8260 fluorescence intensity (a.u.). Next, “GAACTCGAACTCTTCTAGATAAGCTTCCTTTGATTGATCCCGGAGTCACCTAGTGCAG”: 8070 fluorescence intensity (a.u.); “GGCTCTCTAGCTCGGTCGATCATCCATGACGTCACTACAACGGAGTCACCTAGTGCAG”: 9630 fluorescence intensity (a.u.).

In the case of “ACTCGTCTTGACCCATAGTCCCCTGCTCGTACTGCTTGCTCGGAGTCACCTAGTGCAG”, the binding signal is 8160 fluorescence intensity (a.u.). The value for “CTATAAATCTCGCTCCATCAGCAAGCCAGCTCTCATCAACCGGAGTCACCTAGTGCAG” was 8650 fluorescence intensity (a.u.); that for “TCGCGTTCCGTTTCGTTGCGACGCCACGCGAGCCATGCTGCGGAGTCACCTAGTGCAG” was 8280 fluorescence intensity (a.u.).

As to “AGCCCATTCATGAAACCTAATAGCTCGGATTCTGCCCCTACGGAGTCACCTAGTGCAG”, the binding signal is 8330 fluorescence intensity (a.u.). Next, “TTCTTTTTTTTGCTCGTCTCTTCCTCATCCTCTCACCGCCCGGAGTCACCTAGTGCAG”: 8840 fluorescence intensity (a.u.).
